Source: the supplement of paper PMC10849652
The other results are listed elsewhere or left out.

By UniProt entry, the sequences of proteins in these tests, tags left out. Where a name states a change or a piece, a line headed by the entry shows the natural chain unless it says otherwise.
UniProt Q9Y394: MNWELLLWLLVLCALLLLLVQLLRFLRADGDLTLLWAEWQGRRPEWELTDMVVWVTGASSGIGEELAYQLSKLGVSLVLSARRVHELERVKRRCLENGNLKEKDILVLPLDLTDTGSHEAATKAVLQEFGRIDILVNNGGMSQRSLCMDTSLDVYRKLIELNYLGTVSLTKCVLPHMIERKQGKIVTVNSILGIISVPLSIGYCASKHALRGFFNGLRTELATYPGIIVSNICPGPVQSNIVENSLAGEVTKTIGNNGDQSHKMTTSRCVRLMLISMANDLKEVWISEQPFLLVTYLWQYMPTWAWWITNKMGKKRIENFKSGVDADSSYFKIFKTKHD
UniProt Q92620: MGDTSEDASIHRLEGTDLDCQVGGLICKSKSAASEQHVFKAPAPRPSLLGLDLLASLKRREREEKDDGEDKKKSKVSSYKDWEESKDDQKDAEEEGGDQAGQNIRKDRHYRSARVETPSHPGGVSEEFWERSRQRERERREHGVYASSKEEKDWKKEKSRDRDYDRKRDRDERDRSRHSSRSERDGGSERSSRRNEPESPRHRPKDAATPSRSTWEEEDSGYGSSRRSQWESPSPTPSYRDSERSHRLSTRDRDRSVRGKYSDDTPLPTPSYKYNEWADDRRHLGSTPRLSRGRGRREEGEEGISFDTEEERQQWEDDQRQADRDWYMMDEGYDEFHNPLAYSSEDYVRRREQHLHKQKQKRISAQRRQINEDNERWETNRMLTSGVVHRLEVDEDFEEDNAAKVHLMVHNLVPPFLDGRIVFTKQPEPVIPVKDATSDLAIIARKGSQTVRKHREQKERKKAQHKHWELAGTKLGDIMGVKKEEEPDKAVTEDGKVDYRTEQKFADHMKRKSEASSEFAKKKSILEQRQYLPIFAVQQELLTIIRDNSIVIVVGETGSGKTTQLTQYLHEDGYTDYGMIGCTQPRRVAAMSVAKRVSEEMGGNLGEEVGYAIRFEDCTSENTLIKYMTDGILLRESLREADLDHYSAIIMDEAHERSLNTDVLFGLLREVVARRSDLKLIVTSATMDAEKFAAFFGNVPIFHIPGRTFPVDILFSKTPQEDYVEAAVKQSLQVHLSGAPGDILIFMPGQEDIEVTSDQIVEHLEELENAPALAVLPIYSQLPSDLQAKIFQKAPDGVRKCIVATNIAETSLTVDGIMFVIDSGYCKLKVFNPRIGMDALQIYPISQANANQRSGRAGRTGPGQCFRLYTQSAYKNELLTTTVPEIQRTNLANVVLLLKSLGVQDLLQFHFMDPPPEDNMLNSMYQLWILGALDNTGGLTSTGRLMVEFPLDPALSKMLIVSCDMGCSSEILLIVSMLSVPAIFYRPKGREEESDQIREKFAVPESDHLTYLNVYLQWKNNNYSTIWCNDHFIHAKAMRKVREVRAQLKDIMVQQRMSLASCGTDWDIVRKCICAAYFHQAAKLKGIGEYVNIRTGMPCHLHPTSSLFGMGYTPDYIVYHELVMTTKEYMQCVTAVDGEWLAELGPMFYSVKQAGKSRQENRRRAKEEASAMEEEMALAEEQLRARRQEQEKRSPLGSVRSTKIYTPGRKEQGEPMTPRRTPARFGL
UniProt Q15392: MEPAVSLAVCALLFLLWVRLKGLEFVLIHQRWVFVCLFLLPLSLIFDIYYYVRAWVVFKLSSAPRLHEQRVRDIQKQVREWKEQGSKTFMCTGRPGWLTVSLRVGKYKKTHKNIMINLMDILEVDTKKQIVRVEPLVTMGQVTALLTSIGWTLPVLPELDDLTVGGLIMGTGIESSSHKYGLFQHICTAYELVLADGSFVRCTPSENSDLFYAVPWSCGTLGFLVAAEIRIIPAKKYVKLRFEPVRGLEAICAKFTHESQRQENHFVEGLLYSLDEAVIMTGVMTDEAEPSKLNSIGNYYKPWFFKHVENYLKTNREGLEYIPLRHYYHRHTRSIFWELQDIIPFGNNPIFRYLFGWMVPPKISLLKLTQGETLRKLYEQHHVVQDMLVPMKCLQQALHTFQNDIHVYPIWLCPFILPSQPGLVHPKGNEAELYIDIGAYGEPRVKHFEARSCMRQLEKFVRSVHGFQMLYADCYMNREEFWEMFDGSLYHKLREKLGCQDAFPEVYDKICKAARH
UniProt Q9NVH1: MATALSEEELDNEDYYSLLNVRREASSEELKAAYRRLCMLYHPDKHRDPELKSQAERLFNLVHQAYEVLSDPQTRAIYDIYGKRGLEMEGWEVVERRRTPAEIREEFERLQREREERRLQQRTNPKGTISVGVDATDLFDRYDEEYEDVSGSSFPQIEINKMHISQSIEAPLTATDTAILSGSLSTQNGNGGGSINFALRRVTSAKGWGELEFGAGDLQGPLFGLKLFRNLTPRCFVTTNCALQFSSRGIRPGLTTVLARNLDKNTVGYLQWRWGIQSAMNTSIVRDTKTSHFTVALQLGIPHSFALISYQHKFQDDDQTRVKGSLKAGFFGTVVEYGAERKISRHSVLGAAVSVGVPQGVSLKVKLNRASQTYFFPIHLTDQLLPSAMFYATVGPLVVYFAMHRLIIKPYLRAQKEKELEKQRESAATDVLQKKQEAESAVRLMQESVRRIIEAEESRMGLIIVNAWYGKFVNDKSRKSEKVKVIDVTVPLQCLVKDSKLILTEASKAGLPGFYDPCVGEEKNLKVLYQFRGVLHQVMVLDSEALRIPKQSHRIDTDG
UniProt Q96BY6: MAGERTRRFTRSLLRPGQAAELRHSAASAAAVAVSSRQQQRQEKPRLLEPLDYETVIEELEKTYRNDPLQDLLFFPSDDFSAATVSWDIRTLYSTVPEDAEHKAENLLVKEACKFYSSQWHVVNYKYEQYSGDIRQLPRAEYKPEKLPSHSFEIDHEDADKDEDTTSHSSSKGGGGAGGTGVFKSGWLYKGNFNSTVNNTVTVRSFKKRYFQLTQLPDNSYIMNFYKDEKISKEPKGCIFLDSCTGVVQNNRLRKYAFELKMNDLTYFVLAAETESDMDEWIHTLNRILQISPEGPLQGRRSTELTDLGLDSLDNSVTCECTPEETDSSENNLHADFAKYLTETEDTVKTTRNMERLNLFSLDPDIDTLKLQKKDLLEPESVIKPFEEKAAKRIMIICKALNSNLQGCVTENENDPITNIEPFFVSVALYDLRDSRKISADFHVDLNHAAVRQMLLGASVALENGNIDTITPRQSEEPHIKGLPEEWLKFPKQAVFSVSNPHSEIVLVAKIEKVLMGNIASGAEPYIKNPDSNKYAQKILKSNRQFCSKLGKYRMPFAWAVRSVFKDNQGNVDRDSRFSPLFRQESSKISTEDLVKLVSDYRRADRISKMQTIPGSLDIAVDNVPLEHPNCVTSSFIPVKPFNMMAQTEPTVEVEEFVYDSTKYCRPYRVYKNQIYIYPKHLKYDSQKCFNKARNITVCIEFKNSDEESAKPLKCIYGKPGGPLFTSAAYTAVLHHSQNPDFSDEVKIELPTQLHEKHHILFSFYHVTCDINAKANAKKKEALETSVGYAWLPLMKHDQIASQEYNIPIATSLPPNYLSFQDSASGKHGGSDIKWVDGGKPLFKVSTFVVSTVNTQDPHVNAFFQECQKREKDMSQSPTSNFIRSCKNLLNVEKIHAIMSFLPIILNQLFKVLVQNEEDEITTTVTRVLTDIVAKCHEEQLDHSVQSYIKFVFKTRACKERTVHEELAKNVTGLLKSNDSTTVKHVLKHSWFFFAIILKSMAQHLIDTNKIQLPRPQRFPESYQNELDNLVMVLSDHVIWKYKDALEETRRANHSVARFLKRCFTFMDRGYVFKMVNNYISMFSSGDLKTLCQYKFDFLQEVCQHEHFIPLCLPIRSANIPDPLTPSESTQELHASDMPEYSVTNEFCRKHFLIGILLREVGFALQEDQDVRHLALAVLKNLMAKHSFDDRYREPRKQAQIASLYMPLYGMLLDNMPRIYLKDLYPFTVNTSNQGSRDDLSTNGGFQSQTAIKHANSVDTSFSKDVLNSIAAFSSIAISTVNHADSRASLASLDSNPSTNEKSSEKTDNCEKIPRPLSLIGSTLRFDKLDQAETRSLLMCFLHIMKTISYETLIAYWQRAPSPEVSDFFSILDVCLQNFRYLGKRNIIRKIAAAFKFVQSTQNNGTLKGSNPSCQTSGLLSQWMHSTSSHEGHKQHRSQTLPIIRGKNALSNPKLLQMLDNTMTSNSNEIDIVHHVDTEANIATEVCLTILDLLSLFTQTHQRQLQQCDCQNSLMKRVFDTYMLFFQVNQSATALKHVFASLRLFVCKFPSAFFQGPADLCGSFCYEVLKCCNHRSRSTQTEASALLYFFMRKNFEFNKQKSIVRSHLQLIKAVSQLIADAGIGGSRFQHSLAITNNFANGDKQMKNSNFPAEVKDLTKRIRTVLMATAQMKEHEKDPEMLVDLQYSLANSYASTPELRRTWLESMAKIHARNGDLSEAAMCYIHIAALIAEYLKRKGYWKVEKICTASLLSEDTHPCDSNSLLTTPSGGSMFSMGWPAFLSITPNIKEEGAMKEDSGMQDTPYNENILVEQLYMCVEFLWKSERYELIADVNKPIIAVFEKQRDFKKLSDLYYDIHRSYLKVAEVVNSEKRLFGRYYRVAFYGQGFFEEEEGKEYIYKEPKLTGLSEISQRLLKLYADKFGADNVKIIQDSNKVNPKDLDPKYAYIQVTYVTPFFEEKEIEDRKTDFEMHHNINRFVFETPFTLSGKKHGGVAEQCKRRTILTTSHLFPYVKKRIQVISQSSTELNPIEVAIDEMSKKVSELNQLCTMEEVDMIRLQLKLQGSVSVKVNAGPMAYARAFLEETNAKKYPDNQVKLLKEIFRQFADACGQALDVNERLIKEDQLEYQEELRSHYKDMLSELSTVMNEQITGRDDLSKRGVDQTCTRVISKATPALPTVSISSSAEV
UniProt Q9NR28: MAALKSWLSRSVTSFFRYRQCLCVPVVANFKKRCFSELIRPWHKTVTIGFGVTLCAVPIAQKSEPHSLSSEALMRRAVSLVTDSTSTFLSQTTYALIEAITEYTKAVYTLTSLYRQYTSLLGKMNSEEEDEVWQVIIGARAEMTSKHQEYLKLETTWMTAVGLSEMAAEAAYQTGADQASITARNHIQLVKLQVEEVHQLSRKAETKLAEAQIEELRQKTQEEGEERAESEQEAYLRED
UniProt P00374: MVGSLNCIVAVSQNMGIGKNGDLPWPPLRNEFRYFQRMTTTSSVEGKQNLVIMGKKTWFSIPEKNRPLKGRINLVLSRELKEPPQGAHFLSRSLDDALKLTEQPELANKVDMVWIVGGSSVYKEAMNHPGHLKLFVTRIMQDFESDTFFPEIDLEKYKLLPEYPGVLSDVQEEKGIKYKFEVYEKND
UniProt Q02127: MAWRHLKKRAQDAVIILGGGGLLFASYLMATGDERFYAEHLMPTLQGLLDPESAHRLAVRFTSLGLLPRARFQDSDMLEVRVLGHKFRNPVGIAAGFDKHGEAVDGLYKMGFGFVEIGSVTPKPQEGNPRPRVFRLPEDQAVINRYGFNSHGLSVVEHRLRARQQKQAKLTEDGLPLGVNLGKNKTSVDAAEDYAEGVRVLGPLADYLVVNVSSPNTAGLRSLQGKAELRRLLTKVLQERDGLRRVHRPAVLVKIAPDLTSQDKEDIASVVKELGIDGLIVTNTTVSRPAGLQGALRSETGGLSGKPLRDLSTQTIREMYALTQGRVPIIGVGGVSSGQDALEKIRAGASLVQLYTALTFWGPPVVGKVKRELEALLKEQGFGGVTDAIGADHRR
UniProt Q86YN1: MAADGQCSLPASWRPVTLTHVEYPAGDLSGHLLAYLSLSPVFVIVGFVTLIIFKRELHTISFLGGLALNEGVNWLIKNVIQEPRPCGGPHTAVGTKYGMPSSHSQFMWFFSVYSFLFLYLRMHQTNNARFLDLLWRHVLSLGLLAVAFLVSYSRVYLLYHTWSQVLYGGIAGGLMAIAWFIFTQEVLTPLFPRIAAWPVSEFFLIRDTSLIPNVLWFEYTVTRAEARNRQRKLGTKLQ
UniProt Q9H5Z1: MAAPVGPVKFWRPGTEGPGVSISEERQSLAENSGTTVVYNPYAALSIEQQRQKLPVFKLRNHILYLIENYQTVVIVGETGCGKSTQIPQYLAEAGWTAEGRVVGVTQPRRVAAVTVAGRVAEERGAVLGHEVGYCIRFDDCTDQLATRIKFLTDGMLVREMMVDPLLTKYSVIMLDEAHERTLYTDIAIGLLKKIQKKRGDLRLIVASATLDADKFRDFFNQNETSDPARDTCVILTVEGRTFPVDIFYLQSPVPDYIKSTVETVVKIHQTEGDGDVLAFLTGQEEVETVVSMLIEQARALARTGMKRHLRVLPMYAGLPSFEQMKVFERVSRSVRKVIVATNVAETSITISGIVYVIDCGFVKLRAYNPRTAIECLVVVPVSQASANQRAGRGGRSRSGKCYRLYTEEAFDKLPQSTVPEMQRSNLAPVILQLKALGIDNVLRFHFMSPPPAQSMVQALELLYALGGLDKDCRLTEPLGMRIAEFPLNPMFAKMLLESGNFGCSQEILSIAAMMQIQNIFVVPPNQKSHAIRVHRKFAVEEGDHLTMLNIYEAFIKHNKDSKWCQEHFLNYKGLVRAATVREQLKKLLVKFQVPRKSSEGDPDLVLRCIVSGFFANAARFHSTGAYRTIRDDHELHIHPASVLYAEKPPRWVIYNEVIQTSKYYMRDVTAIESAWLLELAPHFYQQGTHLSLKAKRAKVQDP

How the values were obtained:
Test in all cases: log2 fold change, soluble protein after heating vs DMSO (PISA); higher = thermal stabilisation; K562 lysate, 10 uM; active = over 0.2 and 3.5 SD of the protein, either way, in both replicates (recomputed)
lapatinib = compound: CS(=O)(=O)CCNCc1ccc(-c2ccc3ncnc(Nc4ccc(OCc5cccc(F)c5)c(Cl)c4)c3c2)o1 [lapatinib]
How it was run: (§1)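 Soluble protein was defined as the supernatant remaining after 21,000xg for 90 min, following pooling of heated aliquots and adjustment to 0.5% NP-40 at 4°C. Before that, crude K562 extract at 1 mg/mL protein in PBS pH 7.4 with 1 mM MgCl2 was treated with 10 μM compound for 30 min and heated for 3 min across 48°C-58°C. Quantification used TMTpro 16plex LC-MS/MS with channel sums equalised, and values are log-two fold changes in thermal stability relative to solvent controls from duplicates.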

pictilisib = compound: CS(=O)(=O)N1CCN(Cc2cc3nc(-c4cccc5[nH]ncc45)nc(N4CCOCC4)c3s2)CC1 [pictilisib]
How it was run: as §1

crizotinib = compound: C[C@@H](Oc1cc(-c2cnn(C3CCNCC3)c2)cnc1N)c1c(Cl)ccc(F)c1Cl [crizotinib]
How it was run: as §1

[1] = compound: C[C@H](C1=CC=C(C=C1)C(=O)NC2=C3C=CNC3=NC=C2)N
How it was run: as §1

duvelisib = compound: C[C@H](Nc1ncnc2nc[nH]c12)c1cc2cccc(Cl)c2c(=O)n1-c1ccccc1 [duvelisib]
How it was run: as §1

gandotinib = compound: Cc1cc(Nc2cc(CN3CCOCC3)c3nc(C)c(Cc4ccc(Cl)cc4F)n3n2)n[nH]1 [gandotinib]
How it was run: as §1

tozasertib = compound: Cc1cc(Nc2cc(N3CCN(C)CC3)nc(Sc3ccc(NC(=O)C4CC4)cc3)n2)n[nH]1 [tozasertib]
How it was run: as §1

doramapimod = compound: Cc1ccc(-n2nc(C(C)(C)C)cc2NC(=O)Nc2ccc(OCCN3CCOCC3)c3ccccc23)cc1 [doramapimod]
How it was run: as §1

bafetinib = compound: Cc1ccc(NC(=O)c2ccc(CN3CC[C@H](N(C)C)C3)c(C(F)(F)F)c2)cc1Nc1nccc(-c2cncnc2)n1 [bafetinib]
How it was run: as §1

[2] = compound: Cc1cccc(CC(=O)N2CCc3c2ccc(-c2cn(C)c4ncnc(N)c24)c3F)n1
How it was run: as §1

nilotinib = compound: Cc1cn(-c2cc(NC(=O)c3ccc(C)c(Nc4nccc(-c5cccnc5)n4)c3)cc(C(F)(F)F)c2)cn1 [nilotinib]
How it was run: as §1

[3] = compound: Cc1nc(Nc2n[nH]c3c2CN(C(=O)N[C@H](CN(C)C)c2ccccc2)C3(C)C)c2sccc2n1
How it was run: as §1

dasatinib = compound: Cc1nc(Nc2ncc(C(=O)Nc3c(C)cccc3Cl)s2)cc(N2CCN(CCO)CC2)n1 [dasatinib]
How it was run: as §1

[4] = compound: Cc1ncc(-c2ccnc(Nc3ccc(S(C)(=O)=O)cc3)n2)n1C(C)C
How it was run: as §1

[5] = compound: Cn1cc(-c2ccc3c(c2)CCN3C(=O)Cc2cccc(C(F)(F)F)c2)c2c(N)ncnc21
How it was run: as §1

quisinostat = compound: Cn1cc(CNCC2CCN(c3ncc(C(=O)NO)cn3)CC2)c2ccccc21 [quisinostat]
How it was run: as §1

tipifarnib = compound: Cn1cncc1[C@@](N)(c1ccc(Cl)cc1)c1ccc2c(c1)c(-c1cccc(Cl)c1)cc(=O)n2C [tipifarnib]
How it was run: as §1

[6] = compound: NC(=O)Nc1cc(-c2cccc(F)c2)sc1C(=O)N[C@H]1CCCNC1
How it was run: as §1

[7] = compound: NC(=O)c1cnc(N[C@@H]2CCCC[C@@H]2N)nc1Nc1cccc(-n2nccn2)c1
How it was run: as §1

[8] = compound: NC1(c2ccc(-c3nc4ccn5c(=O)[nH]nc5c4cc3-c3ccccc3)cc2)CCC1
How it was run: as §1

Measured: log2 fold change

DNAJB1 (UniProt P25685)
inactive: lapatinib 0.018 | pictilisib 0.049 | crizotinib -0.004 | [1] -0.022 | duvelisib 0.001 | gandotinib 0.036 | tozasertib -0.015 | doramapimod 0.1 | bafetinib 0.009 | [2] 0.001 | nilotinib -0.008 | [3] 0.003 | dasatinib -0.047 | [4] -0.017 | [5] 0.004 | quisinostat 0.007 | tipifarnib -0.036 | [6] 0.003 | [7] 0.01 | [8] 0.013

DHRS7 (UniProt Q9Y394)
inactive: lapatinib 0.01 | pictilisib -0.039 | crizotinib -0.005 | [1] -0.088 | duvelisib 0.013 | gandotinib 0.057 | tozasertib -0.013 | doramapimod 0.012 | bafetinib 0.035 | [2] 0.027 | nilotinib 0.012 | [3] -0.012 | dasatinib -0.055 | [4] -0.014 | [5] -0.001 | quisinostat -0.042 | tipifarnib 0.033 | [6] -0.007 | [7] 0.015 | [8] -0.047

DHX30 isoform 2 (UniProt Q7L2E3)
inactive: lapatinib -0.015 | pictilisib 0.015 | crizotinib -0.036 | [1] 0.025 | duvelisib -0.034 | gandotinib -0.074 | tozasertib 0.002 | doramapimod 0.019 | bafetinib -0.017 | [2] 0.028 | nilotinib -0.006 | [3] 0.005 | dasatinib -0.008 | [4] 0.003 | [5] 0.035 | quisinostat -0.021 | tipifarnib 0 | [6] 0.056 | [7] 0.007 | [8] -0.005

DFFB (UniProt O76075)
inactive: lapatinib 0.003 | pictilisib -0.016 | crizotinib 0.023 | [1] 0.003 | duvelisib -0.008 | gandotinib 0.015 | tozasertib 0.049 | doramapimod -0.07 | bafetinib -0.028 | [2] -0.021 | nilotinib 0.192 | [3] -0.062 | dasatinib 0.008 | [4] 0.155 | [5] 0.012 | quisinostat 0.038 | tipifarnib -0.013 | [6] -0.049 | [7] 0.026 | [8] -0.047

DHX38 (UniProt Q92620)
inactive: lapatinib 0.004 | pictilisib 0.024 | crizotinib 0.001 | [1] 0.006 | duvelisib 0.004 | gandotinib -0.041 | tozasertib -0.012 | doramapimod -0.003 | bafetinib 0.006 | [2] -0.016 | nilotinib -0.014 | [3] 0.02 | dasatinib -0.001 | [4] -0.016 | [5] 0.013 | quisinostat 0.035 | tipifarnib 0.106 | [6] 0.037 | [7] -0.018 | [8] -0.032

DHCR24 (UniProt Q15392)
inactive: lapatinib 0.034 | pictilisib 0.016 | crizotinib -0.129 | [1] -0.046 | duvelisib 0.076 | gandotinib -0.059 | tozasertib 0.032 | doramapimod -0.06 | bafetinib 0.069 | [2] 0.033 | nilotinib -0.065 | [3] 0.026 | dasatinib 0.08 | [4] -0.001 | [5] -0.275 | quisinostat 0.103 | tipifarnib -0.07 | [6] 0.095 | [7] -0.002 | [8] -0.037

DNAJC11 (UniProt Q9NVH1)
inactive: lapatinib -0.024 | pictilisib 0.001 | crizotinib -0.003 | [1] 0.009 | duvelisib 0.01 | gandotinib -0.051 | tozasertib 0.034 | doramapimod -0.019 | bafetinib 0.009 | [2] 0.03 | nilotinib 0.005 | [3] -0.018 | dasatinib -0.018 | [4] -0.015 | [5] 0.011 | quisinostat 0.039 | tipifarnib 0.015 | [6] -0.02 | [7] 0.013 | [8] -0.019

DNAJC7 (UniProt Q99615)
inactive: lapatinib 0.078 | pictilisib 0.065 | crizotinib -0.045 | [1] -0.017 | duvelisib -0.041 | gandotinib 0.076 | tozasertib -0.005 | doramapimod 0.202 | bafetinib -0.041 | [2] -0.03 | nilotinib -0.001 | [3] 0.008 | dasatinib -0.028 | [4] -0.015 | [5] 0.011 | quisinostat -0.051 | tipifarnib -0.056 | [6] -0.021 | [7] 0.003 | [8] 0.025

DOCK10 (UniProt Q96BY6)
active: [1] -0.641 | quisinostat -0.636
inactive: lapatinib -0.025 | pictilisib -0.024 | crizotinib -0.461 | duvelisib 0.003 | gandotinib 0.231 | tozasertib 0 | doramapimod 0.137 | bafetinib -0.226 | [2] 0.379 | nilotinib -0.046 | [3] -0.008 | dasatinib -0.086 | [4] -0.081 | [5] 0.025 | tipifarnib -0.129 | [6] -0.011 | [7] 0.029 | [8] -0.086

DIEXF (UniProt Q68CQ4)
inactive: lapatinib -0.01 | pictilisib 0.006 | crizotinib -0.003 | [1] -0.01 | duvelisib 0.053 | gandotinib -0.048 | tozasertib 0.043 | doramapimod -0.018 | bafetinib -0.055 | [2] 0.016 | nilotinib 0.001 | [3] -0.014 | dasatinib -0.029 | [4] 0.104 | [5] 0.093 | quisinostat -0.037 | tipifarnib -0.007 | [6] 0.096 | [7] 0.032 | [8] 0.111

DIABLO (UniProt Q9NR28)
inactive: lapatinib -0.009 | pictilisib -0.029 | crizotinib -0.001 | [1] -0.057 | duvelisib 0.033 | gandotinib 0.023 | tozasertib -0.001 | doramapimod 0.015 | bafetinib -0.044 | [2] 0.028 | nilotinib 0.018 | [3] -0.025 | dasatinib -0.019 | [4] 0.022 | [5] 0.019 | quisinostat -0.064 | tipifarnib 0.029 | [6] -0.006 | [7] -0.003 | [8] 0.017

DOCK7 (UniProt Q96N67)
inactive: lapatinib -0.003 | pictilisib -0.016 | crizotinib -0.022 | [1] -0.107 | duvelisib -0.004 | gandotinib -0.103 | tozasertib 0.047 | doramapimod 0.012 | bafetinib -0.032 | [2] 0.102 | nilotinib 0.005 | [3] -0.002 | dasatinib 0.01 | [4] -0.03 | [5] 0.029 | quisinostat -0.039 | tipifarnib -0.01 | [6] 0.048 | [7] 0.036 | [8] -0.062

DHFR (UniProt P00374)
inactive: lapatinib -0.012 | pictilisib -0.069 | crizotinib -0.054 | [1] 0.04 | duvelisib -0.015 | gandotinib -0.099 | tozasertib 0.022 | doramapimod 0.011 | bafetinib -0.047 | [2] -0.077 | nilotinib 0.023 | [3] -0.041 | dasatinib -0.091 | [4] 0.019 | [5] 0.073 | quisinostat -0.009 | tipifarnib -0.012 | [6] 0.039 | [7] -0.129 | [8] -0.04

DHODH (UniProt Q02127)
inactive: lapatinib -0.004 | pictilisib -0.016 | crizotinib -0.025 | [1] -0.067 | duvelisib -0.036 | gandotinib 0.064 | tozasertib 0.007 | doramapimod 0.025 | bafetinib 0.01 | [2] 0.034 | nilotinib 0.007 | [3] 0.007 | dasatinib 0.074 | [4] -0.016 | [5] 0.005 | quisinostat -0.016 | tipifarnib -0.022 | [6] -0.009 | [7] 0.008 | [8] -0.015

DOLPP1 (UniProt Q86YN1)
inactive: lapatinib 0.034 | pictilisib 0.082 | crizotinib -0.055 | [1] 0.046 | duvelisib -0.029 | gandotinib -0.028 | tozasertib -0.022 | doramapimod -0.004 | bafetinib -0.124 | [2] 0.168 | nilotinib -0.111 | [3] 0.023 | dasatinib 0.084 | [4] -0.087 | [5] -0.01 | quisinostat -0.043 | tipifarnib -0.074 | [6] -0.024 | [7] -0.021 | [8] -0.044

2 consecutive records from above, for reference:
DIABLO (UniProt Q9NR28)
inactive: lapatinib -0.009 | pictilisib -0.029 | crizotinib -0.001 | [1] -0.057 | duvelisib 0.033 | gandotinib 0.023 | tozasertib -0.001 | doramapimod 0.015 | bafetinib -0.044 | [2] 0.028 | nilotinib 0.018 | [3] -0.025 | dasatinib -0.019 | [4] 0.022 | [5] 0.019 | quisinostat -0.064 | tipifarnib 0.029 | [6] -0.006 | [7] -0.003 | [8] 0.017

DOCK7 (UniProt Q96N67)
inactive: lapatinib -0.003 | pictilisib -0.016 | crizotinib -0.022 | [1] -0.107 | duvelisib -0.004 | gandotinib -0.103 | tozasertib 0.047 | doramapimod 0.012 | bafetinib -0.032 | [2] 0.102 | nilotinib 0.005 | [3] -0.002 | dasatinib 0.01 | [4] -0.03 | [5] 0.029 | quisinostat -0.039 | tipifarnib -0.01 | [6] 0.048 | [7] 0.036 | [8] -0.062

Further results follow:

DHX35 (UniProt Q9H5Z1)
inactive: lapatinib 0.061 | pictilisib -0.002 | crizotinib -0.014 | [1] 0.005 | duvelisib -0.034 | gandotinib -0.054 | tozasertib 0.058 | doramapimod -0.295 | bafetinib -0.079 | [2] -0.14 | nilotinib 0.08 | [3] -0.029 | dasatinib -0.14 | [4] -0.005 | [5] 0.003 | quisinostat -0.338 | tipifarnib 0.04 | [6] 0.217 | [7] 0.169 | [8] 0.149
